These are yes or no findings as the source states them, for the method shown. For some of these results: In cells and extracts the contact can be indirect. Some entries that bind do so weakly or less than the wild type.
Experiments:
[1] = biological target: NPR1 fused with a C-terminal GFP tag (NPR1-GFP) (Arabidopsis) (UniProt P93002); assay: co-IP; NPR1-GFP co-expressed with HA-TCP14 or HA-TCP15 in N. benthamiana; extracts incubated with GFP-Trap MA beads at 4°C overnight; immunoblot with anti-HA
[2] = biological target: TCP8 fused with an N-terminal FLAG tag (FLAG-TCP8) (Arabidopsis) (UniProt Q9C518); assay: co-IP; NPR1-GFP and FLAG-TCP8 co-expressed in N. benthamiana; extracts incubated with anti-FLAG M2 magnetic beads at 4°C overnight, no DTT in any buffer; immunoblot with anti-GFP
[3] = biological target: NPR1 fused with a GAL4 DNA binding domain (BD-NPR1) (Arabidopsis) (UniProt P93002); assay: two-hybrid; individual prey tests; BD-NPR1 bait (pDEST32, AH109) mated with AD-TF prey (pDEST22, Y187); growth of diploids on -Leu -Trp -His with 1 mM 3-AT
[4] = biological target: NPR1 fused with a GAL4 DNA binding domain (BD-NPR1) (Arabidopsis) (UniProt P93002); assay: two-hybrid; library screen; Arabidopsis NPR1 as bait, Arabidopsis transcription factor library as prey

By UniProt entry, the sequences of proteins in these tests, tags left out.
UniProt P93002: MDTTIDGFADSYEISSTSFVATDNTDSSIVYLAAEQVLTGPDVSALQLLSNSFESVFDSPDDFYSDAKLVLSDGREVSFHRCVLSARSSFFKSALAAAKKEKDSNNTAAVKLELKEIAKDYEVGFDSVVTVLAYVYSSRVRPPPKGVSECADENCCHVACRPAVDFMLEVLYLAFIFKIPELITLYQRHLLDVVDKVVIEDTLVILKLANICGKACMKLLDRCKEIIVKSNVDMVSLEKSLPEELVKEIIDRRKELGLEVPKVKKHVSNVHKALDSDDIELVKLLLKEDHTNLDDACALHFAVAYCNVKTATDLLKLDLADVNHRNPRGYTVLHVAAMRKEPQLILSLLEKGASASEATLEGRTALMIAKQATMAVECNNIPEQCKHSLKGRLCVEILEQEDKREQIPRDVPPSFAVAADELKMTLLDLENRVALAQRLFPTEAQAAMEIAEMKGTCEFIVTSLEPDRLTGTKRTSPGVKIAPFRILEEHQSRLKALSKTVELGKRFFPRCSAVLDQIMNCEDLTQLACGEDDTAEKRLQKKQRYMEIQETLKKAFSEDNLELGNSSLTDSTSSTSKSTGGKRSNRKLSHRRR
UniProt Q9C518: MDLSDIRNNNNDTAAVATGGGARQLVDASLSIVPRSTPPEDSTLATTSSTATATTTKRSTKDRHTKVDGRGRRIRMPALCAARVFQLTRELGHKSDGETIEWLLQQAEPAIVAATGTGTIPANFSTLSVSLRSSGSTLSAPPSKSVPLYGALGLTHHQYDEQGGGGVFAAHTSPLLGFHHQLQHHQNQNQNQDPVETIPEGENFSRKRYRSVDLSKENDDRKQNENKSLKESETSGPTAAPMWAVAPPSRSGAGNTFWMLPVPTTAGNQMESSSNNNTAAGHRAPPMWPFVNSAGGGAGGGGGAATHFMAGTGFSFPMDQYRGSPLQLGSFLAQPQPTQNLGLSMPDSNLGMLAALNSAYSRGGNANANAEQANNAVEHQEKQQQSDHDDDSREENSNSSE
UniProt Q93Z00: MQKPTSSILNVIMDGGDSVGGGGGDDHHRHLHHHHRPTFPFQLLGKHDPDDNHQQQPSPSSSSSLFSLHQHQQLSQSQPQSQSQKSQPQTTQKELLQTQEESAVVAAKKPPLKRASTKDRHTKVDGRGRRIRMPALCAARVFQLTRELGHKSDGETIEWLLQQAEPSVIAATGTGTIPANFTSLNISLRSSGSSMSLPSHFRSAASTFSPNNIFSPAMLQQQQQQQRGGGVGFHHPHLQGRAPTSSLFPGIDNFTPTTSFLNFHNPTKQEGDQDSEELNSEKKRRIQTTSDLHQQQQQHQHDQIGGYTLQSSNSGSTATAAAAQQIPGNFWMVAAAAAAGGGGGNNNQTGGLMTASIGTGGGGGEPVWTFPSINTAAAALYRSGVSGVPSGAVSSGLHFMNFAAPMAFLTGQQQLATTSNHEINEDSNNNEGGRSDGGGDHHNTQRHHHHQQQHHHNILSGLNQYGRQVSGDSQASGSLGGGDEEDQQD

Row | Substance | binding [1] | binding [3] | other results
1 | HA-TCP15 (from UniProt Q9C9L2 1-325) | binds | – | –
2 | NPR1 fused with a C-terminal GFP tag (NPR1-GFP) (from UniProt P93002 1-593) | – | – | binding [2]: binds
3 | TCP8 fused with a GAL4 activation domain (AD-TCP8) (from UniProt Q9C518 1-401) | – | binds | –
4 | TCP14 fused with an N-terminal HA tag (HA-TCP14) (from UniProt Q93Z00 1-489) | binds | – | –

Second part, led by results:

Row | binding [1] | binding [3] | Substance | other results
5 | – | binds | TCP14 fused with a GAL4 activation domain (AD-TCP14) (from UniProt Q93Z00 1-489) | –
6 | – | binds | TCP15 fused with a GAL4 activation domain (AD-TCP15) (from UniProt Q9C9L2 1-325) | binding [4]: binds

— article PMC6102491
